# Measured values from PubChem BioAssay AID504834 (National Center for Advancing Translational Sciences (NCATS), 2011).
# The campaign covered roughly 320,000 compounds. About 22,000 (6.9%) were called active. Inconclusive means that the source gave no clear call. Such entries were picked first, then a sample of the others. Calls follow the shape of the dose curve; as a rule, active = well fitted inhibition curve with a large enough effect; inconclusive = small, poorly fitted or top-dose-only effect, or another doubt; inactive = no such curve, though single readings can be large or run the other way. Where the call is inconclusive, the potency comes from a doubtful curve fit.
# Assay: Primary qHTS for delayed death inhibitors of the malarial parasite plastid, 96 hour incubation
# Conditions: P. falciparum luciferase reporter growth; series mostly up to 28.7 µM
# How it was run: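 Plates of compound plus infected erythrocytes (2% hematocrit, 0.05% parasitemia final) incubate 96 hours, 37 C, 5% CO2. Detection reagent added; reduced luminescence from the parasites' luciferase reporter flags inhibition.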
# Potency is read from the fitted curve at half-maximal effect.
row,SMILES,Potency
1,Cc1ccc2nc(-c3ccccc3O)c(Nc3ccc4c(c3)OCCO4)n2c1,active: 11.7 µM
2,Cc1c(NC(=O)CN2C(=O)NC3(CCCCC3C)C2=O)cccc1[N+](=O)[O-] (stereo not drawn),"inconclusive: 10.4 µM [inhibitor, single point]"
3,CC(C)(C)c1ccc(NC(=O)COC(=O)CCN2C(=O)c3cccc([N+](=O)[O-])c3C2=O)cc1,inactive
4,CCN(CC)CCCN(Cc1cc2cc3c(cc2[nH]c1=O)OCO3)C(=S)NCCCOC,"inconclusive: 9.28 µM [inhibitor, partial curve]"
5,CSc1nc2c(cnn2-c2ccc(C)c(C)c2)c(=O)[nH]1,"inconclusive: 0.104 µM [inhibitor, full curve, poor fit]"
6,O=C(N/N=C\c1ccc(Br)o1)C1COc2ccccc2O1 (stereo not drawn),"inconclusive: 18.5 µM [inhibitor, single point]"
7,COc1cc(/C=N/NC(=O)c2cccnc2)cc2c1OCO2,"inconclusive: 18.5 µM [inhibitor, single point]"
8,COc1ccccc1N1CCN(CC(=O)c2c(C)n(C)c3ccccc23)CC1,"inconclusive: 13.1 µM [inhibitor, single point]"
9,CCN(C(=O)CN1C(=O)NC(c2ccccc2)(c2ccccc2)C1=O)c1ccccc1,"inconclusive: 13.1 µM [inhibitor, single point]"
10,CC(C)c1ccc(NC(=O)CSc2nc(=O)[nH]c3c2CCCC3)cc1,"inconclusive: 11.7 µM [inhibitor, partial curve, poor fit]"
11,O=C(Nc1ccc(F)cc1)C1CCN(C(=O)c2ccc(F)cc2)CC1,"inconclusive: 9.28 µM [inhibitor, partial curve, poor fit]"
12,O=C(NC(=S)NCCC1=CCCCC1)c1ccco1,"inconclusive: 16.5 µM [inhibitor, single point]"
13,CCOc1cc(C2C(C(=O)c3ccc(C)o3)=C(O)C(=O)N2CCc2ccccc2)ccc1O (stereo not drawn),"inconclusive: 10.4 µM [inhibitor, single point]"
14,O=c1[nH]c2cc3c(cc2cc1CN(CCO)S(=O)(=O)c1ccccc1Cl)OCCO3,active: 0.657 µM
15,CCC1=C([N+](=O)[O-])C(c2ccc3c(c2)OCO3)NC(=O)N1 (stereo not drawn),inactive
16,CCOc1ccccc1NC(=O)c1ccc(NC(=O)C2CCCO2)cc1 (stereo not drawn),inactive
17,Cc1occc1-c1nnc(SCc2nc3ccccc3c(=O)n2CC#N)n1C,"inconclusive: 11.7 µM [inhibitor, single point]"
18,CN1CCN(c2oc(-c3ccccc3F)nc2S(=O)(=O)c2ccc(Cl)cc2)CC1,inactive
19,Cn1nc(NC(=O)CC23CC4CC(CC(C4)C2)C3)c2c(F)cccc21,"inconclusive: 2.08 µM [inhibitor, full curve, poor fit]"
20,COc1cccc(NC(=O)C2C3C=CC4(O3)C2C(=O)N(CCCN2CCCC(C)C2)C4C(=O)NC2CCCCC2C)c1 (stereo not drawn),active: 10.4 µM
21,C(/CCc1ccccc1)=N\Nc1nc2ccccc2[nH]1,"inconclusive: 18.5 µM [inhibitor, partial curve, poor fit]"
22,CN(Cc1ccccc1)C(=O)c1ccc(COc2ccccc2)cc1,"inconclusive: 13.1 µM [inhibitor, single point]"
23,CCOC(=O)C1CCCCN1C(=O)c1ccc2nc(Cc3ccc(OC)cc3)oc2c1 (stereo not drawn),"inconclusive: 13.1 µM [inhibitor, single point]"

# 12 successive entries already listed:
row,SMILES,Potency
12,O=C(NC(=S)NCCC1=CCCCC1)c1ccco1,"inconclusive: 16.5 µM [inhibitor, single point]"
13,CCOc1cc(C2C(C(=O)c3ccc(C)o3)=C(O)C(=O)N2CCc2ccccc2)ccc1O (stereo not drawn),"inconclusive: 10.4 µM [inhibitor, single point]"
14,O=c1[nH]c2cc3c(cc2cc1CN(CCO)S(=O)(=O)c1ccccc1Cl)OCCO3,active: 0.657 µM
15,CCC1=C([N+](=O)[O-])C(c2ccc3c(c2)OCO3)NC(=O)N1 (stereo not drawn),inactive
16,CCOc1ccccc1NC(=O)c1ccc(NC(=O)C2CCCO2)cc1 (stereo not drawn),inactive
17,Cc1occc1-c1nnc(SCc2nc3ccccc3c(=O)n2CC#N)n1C,"inconclusive: 11.7 µM [inhibitor, single point]"
18,CN1CCN(c2oc(-c3ccccc3F)nc2S(=O)(=O)c2ccc(Cl)cc2)CC1,inactive
19,Cn1nc(NC(=O)CC23CC4CC(CC(C4)C2)C3)c2c(F)cccc21,"inconclusive: 2.08 µM [inhibitor, full curve, poor fit]"
20,COc1cccc(NC(=O)C2C3C=CC4(O3)C2C(=O)N(CCCN2CCCC(C)C2)C4C(=O)NC2CCCCC2C)c1 (stereo not drawn),active: 10.4 µM
21,C(/CCc1ccccc1)=N\Nc1nc2ccccc2[nH]1,"inconclusive: 18.5 µM [inhibitor, partial curve, poor fit]"
22,CN(Cc1ccccc1)C(=O)c1ccc(COc2ccccc2)cc1,"inconclusive: 13.1 µM [inhibitor, single point]"
23,CCOC(=O)C1CCCCN1C(=O)c1ccc2nc(Cc3ccc(OC)cc3)oc2c1 (stereo not drawn),"inconclusive: 13.1 µM [inhibitor, single point]"

# (listing goes on)

row,SMILES,Potency
1,COc1ccc(NC(=O)N2CCC(C(=O)c3ccc4c(c3)OCCO4)CC2)cc1,inactive
2,COc1ccccc1C1C2CCCCC2(O)CCN1CC(=O)Nc1ccccc1 (stereo not drawn),"inconclusive: 0.522 µM [inhibitor, partial curve, poor fit]"
3,CSCCC(NC(=O)c1ccccc1Cl)C(=O)NNC(=O)c1ccncc1 (stereo not drawn),inactive
4,COc1ccc(-c2csc3ncnc(N4CCN(S(=O)(=O)c5cccc(Br)c5)CC4)c23)cc1,"inconclusive: 11.7 µM [inhibitor, single point]"
5,COc1ccc(/C=N/NC(=S)Nc2cccc(C(=O)O)c2)cc1,inactive
6,O=C1NC(c2cc3ccccc3nc2Cl)Nc2ccccc21 (stereo not drawn),active: 1.85 µM
7,Cn1c2c(c(=O)n(C)c1=O)C(c1ccc(Cl)cc1)C(C#N)=C(N)O2 (stereo not drawn),"inconclusive: 18.5 µM [inhibitor, single point]"
8,N#CC1=C(Nc2ccccc2)SC=C(c2ccc(Cl)c(Cl)c2)N=C1N1CCOCC1,"inconclusive: 13.1 µM [inhibitor, single point]"
9,COc1ccc(N/N=C(\C#N)C(N)=O)cc1,inactive
10,CC(C(=O)O)n1c2ccccc2c2cnn(C)c(=O)c21 (stereo not drawn),inactive
11,COc1ccc(-n2nc(C(=O)NCC(=O)NCC3COc4ccccc4O3)c3ccccc3c2=O)cc1 (stereo not drawn),inactive
12,OCc1cn(-c2ccccc2)nc1-c1cc2ccccc2o1,inactive
13,O=C(CS(=O)(=O)Cc1ccccc1)NCc1ccccc1Cl,"inconclusive: 9.28 µM [inhibitor, single point]"
14,COC(OC)c1ccnc(-c2ccc(OC(=O)c3cccs3)cc2)n1,inactive
15,COc1ccc(S(=O)(=O)N2CCC(C(=O)N3CCOCC3)CC2)cc1OC,"inconclusive: 9.28 µM [inhibitor, single point]"
16,Cn1c(=O)c2c(nc(NCCNC(=O)c3ccco3)n2Cc2ccccc2F)n(C)c1=O,"inconclusive: 18.5 µM [inhibitor, single point]"
17,O=C(Nc1ccccn1)C1CCCN1S(=O)(=O)c1ccc(Cl)cc1 (stereo not drawn),"inconclusive: 18.5 µM [inhibitor, single point]"
18,COc1cc(NC(=O)COn2nnc3ccc(S(C)(=O)=O)cc32)cc(OC)c1,"inconclusive: 11.7 µM [inhibitor, single point]"
19,COC(=O)c1cn(C(=O)c2ccc(C)cc2C)c2ccccc12,"inconclusive: 18.5 µM [inhibitor, single point]"
20,CC(C)c1ccc(NC(=S)Nc2ccc(OC(F)(F)F)cc2)cc1,"inconclusive: 18.5 µM [inhibitor, single point]"
21,C/C(CC(=O)NCCc1ccccc1)=N\NC(=O)COc1ccc(Br)cc1,inactive
22,CCc1c(C)sc(NC(=S)NC(C)C2CCCO2)c1C(=O)OC (stereo not drawn),"inconclusive: 4.65 µM [inhibitor, partial curve, poor fit]"
23,Cc1ccc(-c2noc(CCC(=O)NCCCN3CCN(c4cccc(Cl)c4)CC3)n2)cc1,inactive

row,SMILES,Potency
1,N#CCCn1cc(/C=N/NC(N)=S)c(-c2ccc(-c3ccccc3)cc2)n1,"inconclusive: 13.1 µM [inhibitor, single point]"
2,CN(C(=O)CC1C(=O)NCCN1Cc1ccc(F)c(F)c1)C1CCOCC1 (stereo not drawn),"inconclusive: 18.5 µM [inhibitor, single point]"
3,O=C(c1ccc(Cl)cc1)C1CCN(Cc2ccccc2)CC1,"inconclusive: 10.4 µM [inhibitor, single point]"
4,CC(Cc1ccccc1)NC(=O)c1ccc(N)cc1 (stereo not drawn),active: 11.7 µM
5,COC(=O)CSc1cc([N+](=O)[O-])ccc1NC(=O)OC,"inconclusive: 20.8 µM [inhibitor, single point]"
6,O=C(CS(=O)(=O)c1ccc(F)cc1)NCc1ccccc1,inactive
7,O=C(NCc1nc2ccccc2[nH]1)C1=C[C@H](c2ccc(C(F)(F)F)cc2)C[C@H](OCc2ccc(CO)cc2)O1,"inconclusive: 0.657 µM [inhibitor, full curve, poor fit]"
8,CC(C)Cc1cc(C(=O)N2CCC(N3CCC(C(=O)N4CCOCC4)CC3)CC2)n[nH]1,"inconclusive: 18.5 µM [inhibitor, single point]"
9,Cc1[nH][nH]c(=O)c1C(c1ccc(Br)cc1)c1c(C)[nH][nH]c1=O,"inconclusive: 18.5 µM [inhibitor, single point]"
10,COc1ccc(N(Cc2cc3ccccc3[nH]c2=O)S(=O)(=O)c2ccc(OC)cc2)cc1,"inconclusive: 18.5 µM [inhibitor, single point]"
11,COC(=O)COc1ccc(S(=O)(=O)NCc2ccc3c(c2)OCO3)cc1C,inactive
12,COc1ccc(Cn2nnnc2CN(CCCN2CCOCC2)Cc2cc3cc(OC)ccc3[nH]c2=O)cc1,"inconclusive: 11.7 µM [inhibitor, single point]"
13,Cc1cc(=O)oc2cc(NC(=O)COc3ccccc3[N+](=O)[O-])ccc12,"inconclusive: 0.0329 µM [inhibitor, full curve, poor fit]"
14,COc1ccc(C(=O)Nc2cccc3cccnc23)cc1OC,inactive
15,CCOC(=O)c1sc(NC(=O)C(CC)Sc2nccn2C)nc1C (stereo not drawn),"inconclusive: 18.5 µM [inhibitor, single point]"
16,O=C(Nc1ccc2c(c1)OCO2)c1ccc(N2CCCC2)c([N+](=O)[O-])c1,"inconclusive: 11.7 µM [inhibitor, partial curve, poor fit]"
17,O=C(Nc1ccccc1)c1ccccc1OCc1ccc(S(=O)(=O)N2CCOCC2)cc1,inactive
18,Cc1cc(N/N=C/c2ccccc2[N+](=O)[O-])nc(-n2nc(C)cc2C)n1,active: 0.657 µM
19,O=C1C2CCCN2C(c2ccc(F)cc2)N1c1cccc(Cl)c1 (stereo not drawn),"inconclusive: 9.28 µM [inhibitor, single point]"
20,COC(=O)c1c(NC(=O)COc2ncnc3ccccc23)sc(C)c1C,"inconclusive: 18.5 µM [inhibitor, single point]"
21,O=C(CN(Cc1ccc2c(c1)OCO2)C(=O)CNS(=O)(=O)c1ccccc1)NCC1CCCO1 (stereo not drawn),"inconclusive: 4.15 µM [inhibitor, single point]"
22,O=C(CN1C(=O)c2ccccc2C1=O)Nc1cccc([N+](=O)[O-])c1,"inconclusive: 18.5 µM [inhibitor, single point]"
